Results are given in words; binding and its absence hold for the method and conditions named. In cells and extracts the contact can be indirect. Some results given as binding are weak or reduced against the parent protein; the word gives no strength.

Protein sequences, listed by entry. Tags and fused reporters are not part of them.
UniProt O08808: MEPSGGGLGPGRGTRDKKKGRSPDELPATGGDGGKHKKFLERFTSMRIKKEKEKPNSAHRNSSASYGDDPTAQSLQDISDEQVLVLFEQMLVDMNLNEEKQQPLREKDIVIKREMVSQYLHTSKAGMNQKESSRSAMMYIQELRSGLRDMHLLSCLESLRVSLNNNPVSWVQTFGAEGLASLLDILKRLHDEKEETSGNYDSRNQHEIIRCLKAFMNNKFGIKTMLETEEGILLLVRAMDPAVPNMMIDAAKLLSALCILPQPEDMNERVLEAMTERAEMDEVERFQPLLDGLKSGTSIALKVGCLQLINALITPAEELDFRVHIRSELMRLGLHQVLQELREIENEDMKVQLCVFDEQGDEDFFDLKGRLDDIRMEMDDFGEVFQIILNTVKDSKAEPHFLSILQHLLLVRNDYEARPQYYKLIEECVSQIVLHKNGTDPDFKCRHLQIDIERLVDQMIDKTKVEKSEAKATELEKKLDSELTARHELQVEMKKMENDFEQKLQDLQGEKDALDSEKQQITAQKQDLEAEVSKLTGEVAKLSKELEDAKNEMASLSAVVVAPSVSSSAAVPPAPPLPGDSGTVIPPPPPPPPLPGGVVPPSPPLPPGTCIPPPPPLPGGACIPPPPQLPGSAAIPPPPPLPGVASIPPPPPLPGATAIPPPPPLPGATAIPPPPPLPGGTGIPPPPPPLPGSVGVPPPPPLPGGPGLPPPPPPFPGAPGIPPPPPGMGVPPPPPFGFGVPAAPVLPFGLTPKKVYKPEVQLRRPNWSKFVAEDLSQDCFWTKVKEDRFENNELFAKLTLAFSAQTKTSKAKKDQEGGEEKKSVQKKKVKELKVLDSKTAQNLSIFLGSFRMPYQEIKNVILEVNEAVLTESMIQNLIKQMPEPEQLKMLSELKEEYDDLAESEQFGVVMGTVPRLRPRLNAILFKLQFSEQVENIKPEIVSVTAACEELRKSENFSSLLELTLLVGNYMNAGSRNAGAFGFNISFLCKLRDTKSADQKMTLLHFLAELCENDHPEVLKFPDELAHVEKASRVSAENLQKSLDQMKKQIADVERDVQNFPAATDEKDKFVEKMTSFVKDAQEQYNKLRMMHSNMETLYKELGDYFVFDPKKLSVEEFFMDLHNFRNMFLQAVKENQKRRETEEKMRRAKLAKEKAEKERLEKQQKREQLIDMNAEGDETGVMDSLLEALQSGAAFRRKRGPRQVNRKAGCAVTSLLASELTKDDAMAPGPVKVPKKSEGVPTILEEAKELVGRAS
UniProt Q61879: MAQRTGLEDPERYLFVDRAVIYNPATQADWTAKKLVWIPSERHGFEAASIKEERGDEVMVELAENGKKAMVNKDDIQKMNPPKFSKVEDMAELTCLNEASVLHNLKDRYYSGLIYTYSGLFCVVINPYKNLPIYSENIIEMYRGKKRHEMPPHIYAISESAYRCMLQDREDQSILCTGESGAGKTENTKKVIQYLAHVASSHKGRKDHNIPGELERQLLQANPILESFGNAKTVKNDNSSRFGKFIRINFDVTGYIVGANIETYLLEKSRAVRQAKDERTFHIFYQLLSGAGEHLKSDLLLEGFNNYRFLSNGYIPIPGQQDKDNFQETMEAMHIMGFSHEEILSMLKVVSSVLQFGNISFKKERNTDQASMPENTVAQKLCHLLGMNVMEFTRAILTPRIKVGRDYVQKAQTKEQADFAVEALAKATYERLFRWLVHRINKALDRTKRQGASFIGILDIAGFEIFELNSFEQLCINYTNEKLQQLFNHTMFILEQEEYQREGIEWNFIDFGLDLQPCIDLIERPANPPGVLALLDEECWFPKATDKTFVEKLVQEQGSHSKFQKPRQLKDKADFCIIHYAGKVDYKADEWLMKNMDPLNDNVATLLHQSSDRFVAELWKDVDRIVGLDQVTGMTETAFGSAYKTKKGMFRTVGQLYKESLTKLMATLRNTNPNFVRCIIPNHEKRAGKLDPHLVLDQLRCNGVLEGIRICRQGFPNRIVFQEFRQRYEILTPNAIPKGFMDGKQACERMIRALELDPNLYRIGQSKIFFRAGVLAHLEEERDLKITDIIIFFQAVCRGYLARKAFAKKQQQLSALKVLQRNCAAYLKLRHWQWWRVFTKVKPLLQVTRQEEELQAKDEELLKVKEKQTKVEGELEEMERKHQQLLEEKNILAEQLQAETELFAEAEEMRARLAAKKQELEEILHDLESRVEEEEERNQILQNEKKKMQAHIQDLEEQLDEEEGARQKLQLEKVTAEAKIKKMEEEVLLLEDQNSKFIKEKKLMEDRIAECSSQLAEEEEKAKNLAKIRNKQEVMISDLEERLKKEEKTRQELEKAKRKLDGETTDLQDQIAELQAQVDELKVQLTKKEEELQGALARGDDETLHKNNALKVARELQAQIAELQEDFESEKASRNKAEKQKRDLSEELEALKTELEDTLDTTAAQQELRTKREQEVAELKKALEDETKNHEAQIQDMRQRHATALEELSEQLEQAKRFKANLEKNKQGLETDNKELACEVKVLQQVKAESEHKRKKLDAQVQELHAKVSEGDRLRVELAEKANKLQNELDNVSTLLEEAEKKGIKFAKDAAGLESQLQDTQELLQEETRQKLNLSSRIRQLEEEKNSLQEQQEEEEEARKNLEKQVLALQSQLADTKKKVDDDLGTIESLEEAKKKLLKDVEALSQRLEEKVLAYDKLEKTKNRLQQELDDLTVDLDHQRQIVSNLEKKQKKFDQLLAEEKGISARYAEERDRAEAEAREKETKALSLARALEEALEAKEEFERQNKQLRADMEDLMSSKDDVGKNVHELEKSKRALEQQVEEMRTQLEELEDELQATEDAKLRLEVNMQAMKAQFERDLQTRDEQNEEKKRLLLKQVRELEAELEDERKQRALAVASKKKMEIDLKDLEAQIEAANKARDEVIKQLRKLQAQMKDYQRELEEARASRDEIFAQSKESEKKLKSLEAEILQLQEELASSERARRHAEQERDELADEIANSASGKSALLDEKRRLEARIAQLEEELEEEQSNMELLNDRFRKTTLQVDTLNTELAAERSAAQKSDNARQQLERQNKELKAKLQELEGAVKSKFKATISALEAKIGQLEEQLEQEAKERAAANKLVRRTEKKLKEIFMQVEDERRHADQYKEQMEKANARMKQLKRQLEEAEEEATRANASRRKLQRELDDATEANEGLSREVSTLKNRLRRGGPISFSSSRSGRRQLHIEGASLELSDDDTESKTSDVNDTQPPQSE

The values below come from PMC10950329.

For the assay, the target named is mDia1 (mouse (endogenous in brain synaptosomes)) (UniProt O08808). Nature of the assay: co-IP; endogenous mDia1 precipitated with anti-mDia1 antibody (control: mouse IgG) from detergent-extracted (1% CHAPS, 20 mM HEPES, 130 mM NaCl, 2 mM MgCl2, pH 7.4) mouse synaptosomes (P2' fraction), Protein A/G magnetic beads, 4 °C; immunoblotting.

Myosin IIB (from UniProt Q61879 1-1976): the binding result is reported as “binds”.

B1: Dynamin1 (protein, UniProt P39053 1-867)
chain: MGNRGMEDLIPLVNRLQDAFSAIGQNADLDLPQIAVVGGQSAGKSSVLENFVGRDFLPRGSGIVTRRPLVLQLVNSTTEYAEFLHCKGKKFTDFEEVRLEIEAETDRVTGTNKGISPVPINLRVYSPHVLNLTLVDLPGMTKVPVGDQPPDIEFQIRDMLMQFVTKENCLILAVSPANSDLANSDALKIAKEVDPQGQRTIGVITKLDLMDEGTDARDVLENKLLPLRRGYIGVVNRSQKDIDGKKDITAALAAERKFFLSHPSYRHLADRMGTPYLQKVLNQQLTNHIRDTLPGLRNKLQSQLLSIEKEVDEYKNFRPDDPARKTKALLQMVQQFAVDFEKRIEGSGDQIDTYELSGGARINRIFHERFPFELVKMEFDEKELRREISYAIKNIHGIRTGLFTPDMAFETIVKKQVKKIREPCLKCVDMVISELISTVRQCTKKLQQYPRLREEMERIVTTHIREREGRTKEQVMLLIDIELAYMNTNHEDFIGFANAQQRSNQMNKKKTSGNQDEILVIRKGWLTINNIGIMKGGSKEYWFVLTAENLSWYKDDEEKEKKYMLSVDNLKLRDVEKGFMSSKHIFALFNTEQRNVYKDYRQLELACETQEEVDSWKASFLRAGVYPERVGDKEKASETEENGSDSFMHSMDPQLERQVETIRNLVDSYMAIVNKTVRDLMPKTIMHLMINNTKEFIFSELLANLYSCGDQNTLMEESAEQAQRRDEMLRMYHALKEALSIIGDINTTTVSTPMPPPVDDSWLQVQSVPAGRRSPTSSPTPQRRAPAVPPARPGSRGPAPGPPPAGSALGGAPPVPSRPGASPDPFGPPPQVPSRPNRAPPGVPSLGAWRLNSPQGKHENRAGKARL
As to B1, the binding entry is recorded as “binds”.
